The values below come from patent US4208410A, “Dibenzo[d,g][1,3,6]dioxazocine derivatives” (priority 1977, dated 1980).

The test system of this assay is mice. As to the kind of experiment: Local anaesthetic activity (Acta Chirurg. Scand. 116, 351 (1958)). The class given is in vivo. Here is the method: In order to observe the local anaesthetic activity of the instant compounds 0.25% and 0.5% solution thereof were tested following the method described in Acta Chirurg. Scand. 116, 351 (1958). The test animals were mice.
The concentration at which the activity amounted to 50% (EC50) was determined for the test compounds and for Lidocaine (2-diethylamino-2',6'-acetoxy-xylidide) used for comparison. In order to make possible a direct comparison of the test compounds with Lidocaine also the LD50 /EC50 -values are given in Table II.

The structures appear in SMILES notation.

In turn, `CCN(CC)CC(=O)Nc1c(C)cccc1C` [Lidocaine, 2-diethylamino-2',6'-acetoxy-xylidide, reference compound] yielded an LD50/EC50 of 1120.
